# Experimental data as given in PubChem BioAssay AID528 (NMMLSC, 2006).
# Sequences of proteins named here, by UniProt entry; tags and fusion partners are left off.
# UniProt P13612, whole entry, looked up: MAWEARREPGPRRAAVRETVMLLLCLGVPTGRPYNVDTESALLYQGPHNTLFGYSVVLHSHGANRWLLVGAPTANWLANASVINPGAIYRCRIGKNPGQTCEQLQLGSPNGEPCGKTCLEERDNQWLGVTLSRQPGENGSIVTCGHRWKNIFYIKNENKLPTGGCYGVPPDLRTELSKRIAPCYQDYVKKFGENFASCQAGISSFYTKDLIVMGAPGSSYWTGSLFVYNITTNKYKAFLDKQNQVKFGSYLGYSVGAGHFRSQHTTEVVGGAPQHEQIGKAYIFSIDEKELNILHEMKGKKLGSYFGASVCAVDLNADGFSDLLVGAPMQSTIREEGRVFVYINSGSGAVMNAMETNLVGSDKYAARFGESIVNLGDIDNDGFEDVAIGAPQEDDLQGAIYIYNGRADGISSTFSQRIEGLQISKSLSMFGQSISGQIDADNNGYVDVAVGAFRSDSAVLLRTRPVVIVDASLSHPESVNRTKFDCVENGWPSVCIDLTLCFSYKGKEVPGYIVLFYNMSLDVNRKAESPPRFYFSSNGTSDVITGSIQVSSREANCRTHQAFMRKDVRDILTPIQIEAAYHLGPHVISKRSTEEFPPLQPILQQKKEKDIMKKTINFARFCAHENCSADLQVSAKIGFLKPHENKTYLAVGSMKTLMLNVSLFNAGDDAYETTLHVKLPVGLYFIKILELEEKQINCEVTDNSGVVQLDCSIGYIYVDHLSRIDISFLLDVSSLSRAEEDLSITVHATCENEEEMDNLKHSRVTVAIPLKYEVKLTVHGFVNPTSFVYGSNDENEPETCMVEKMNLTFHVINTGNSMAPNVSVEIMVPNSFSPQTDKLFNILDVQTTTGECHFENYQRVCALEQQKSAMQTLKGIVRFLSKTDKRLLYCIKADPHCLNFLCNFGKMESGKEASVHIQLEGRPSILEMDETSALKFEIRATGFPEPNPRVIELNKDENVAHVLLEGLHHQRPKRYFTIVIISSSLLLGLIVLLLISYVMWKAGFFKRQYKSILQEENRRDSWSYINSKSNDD
# The whole screen tested about 24,000 compounds, of which fewer than 10 were called active. Inconclusive means that the source gave no clear call. Such entries were picked first, then a sample of the others.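 Rule for the calls: active = fluorescent ligand binding to cells raised by more than 40% of the manganese-induced maximum; inconclusive = compound's own fluorescence above 85% of the ligand control signal; inactive = the rest.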
# Target: Integrin alpha-4 (Homo sapiens) (UniProt P13612)
# Experiment: enhancers of LDV-FITC binding to VLA-4 integrin, primary screen, Jurkat cells, flow cytometry (AID 528);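 for activation: 0% = ligand binding without compound and 100% = manganese-stimulated maximal binding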
# Conditions: stronger effect = higher value, screened at 10 µM (by protocol)
row,SMILES,activation
1,CN(CC(=O)Nc1ccc(Cl)cc1)S(=O)(=O)c1cccc2cccnc12,inconclusive
2,CC1(C)Oc2ccc3ccc(=O)oc3c2-c2cnoc21,inconclusive
3,CC1CC(C)CN(S(=O)(=O)c2ccc3c(c2)oc(=O)n3CC(=O)N2CCOCC2)C1 (stereo not given),inconclusive
4,Nc1nc2n(n1)C(c1cccc(Br)c1)CC(c1ccccc1)N2 (stereo not given),inconclusive
5,CCOC(=O)c1sc2ccc(S(=O)(=O)N3CCCCC3)cc2c1N,inconclusive
6,CC1(C)CC(=O)C2=C(C1)N(c1ccccc1C#N)C(N)=C(C#N)C2c1cccs1 (stereo not given),inconclusive
7,CSc1nc(C)c(Cl)c(C)c1C#N,inconclusive
8,CCOc1ccc(S(=O)(=O)NCc2csc(C)n2)cc1,inactive: 7%
9,CCN(c1ccc2c(c1)OCO2)S(=O)(=O)c1cc(Br)cc2c1N(C(=O)C1CC1)CC2,inconclusive
10,CC1CCN(CCNC(=O)C2CCCN(S(=O)(=O)c3cccc4nonc34)C2)CC1 (stereo not given),inconclusive
11,CC(=O)N1CCc2cc(S(=O)(=O)NC(CC(C)C)C(=O)Nc3ccc4c(c3)OCCO4)ccc21 (stereo not given),inconclusive
12,COc1ccc(CN(Cc2cc3cc4c(cc3[nH]c2=O)OCO4)C(=O)NC2CCCCC2)cc1,inactive: 2.7%
13,COC(=O)c1cc(S(=O)(=O)NC2CCN(Cc3ccccc3)CC2)cn1C,inactive: 12%
14,O=C(O)CCCC(=O)N1CCc2cc(S(=O)(=O)N3CCc4ccccc43)ccc21,inconclusive
15,COC(=O)c1ccc2c(=O)n(CCN3CCOCC3)c(SCC(=O)NC3CCCCC3)nc2c1,inconclusive
16,Cn1c(=O)cc(SCC(=O)NCCN2CCN(c3ccccc3F)CC2)c2cc(Cl)ccc21,inactive: -5%
17,CC(C)N(C(=O)CSc1nnc(-c2cc3ccccc3cc2O)n1Cc1ccco1)C(C)C,inconclusive
18,Cc1cccc(N2CCN(c3nc4ccc(Cl)cc4n4cnnc34)CC2)c1C,inconclusive
19,COc1ccc(N2C(=O)C3CCCN3C2c2ccc(Cl)cc2)cc1 (stereo not given),inactive: 0%
20,CCOc1nc(NCCc2ccc(OC)c(OC)c2)nc(NC(C)(C)CO)n1,inconclusive

row,SMILES,activation
1,Cc1ccc(C)c(NS(=O)(=O)c2ccc(NC(=O)c3ccco3)cc2)c1,inconclusive
2,Cc1ccc(N(C(=O)c2cccs2)C2C=CS(=O)(=O)C2)cc1 (stereo not given),inactive: 2%
3,COc1ccccc1CNC(=O)CCn1c(=O)sc2ccccc21,inactive: 5%
4,CCOC(=O)c1ccc(Nc2cc(C)nc3nc(C)nn23)cc1,inactive: 5%
5,Cc1ccc2cc3cc(C(=O)NCCCN4CCc5ccccc5C4)oc3nc2c1,inconclusive
6,COc1ccc(Br)c(C(=O)Nn2c(C)nc3ccccc3c2=O)c1,inconclusive
7,COc1ccc(C(=O)N2CCN(c3ccc(C)cc3)CC2)cc1OC,inconclusive
8,CCc1nnc(NC(=O)COC(=O)CN2C(=O)c3ccccc3C2=O)s1,inconclusive
9,COc1ccccc1-c1cc(C(F)(F)F)nc(S(=O)(=O)CCCC(=O)Nc2cc(C)on2)n1,inconclusive
10,Cc1ccc(Cn2nnc3c(=O)n(CC(=O)NCc4ccc5c(c4)OCO5)cnc32)cc1,inactive: 8%
11,COc1ccccc1C1C(C(N)=O)=C(C)Nc2nc(-c3ccccc3Cl)nn21 (stereo not given),inconclusive
12,CCOC(=O)c1sc2ncnc(N3CCN(c4ccc(OC)cc4)CC3)c2c1C,inactive: -6%
13,CC(=O)N1CCc2cc(Br)cc(S(=O)(=O)NCCCN3CCCC(C)C3)c21 (stereo not given),inconclusive
14,O=C(Nc1nc(-c2nc3ccccc3s2)cs1)c1ccc(S(=O)(=O)N2CCOCC2)cc1,inconclusive
15,Cc1c(NS(=O)(=O)c2ccc3c(c2)c(=O)n(C)c(=O)n3C)c(=O)n(-c2ccccc2)n1C,inactive: 2.7%
16,O=C(CN1CCN(Cc2ccccc2)C1=O)NCc1ccc(Cl)cc1,inactive: -7%
17,COc1ccc(OCc2nnc3n2N=C(c2ccc(Br)cc2)CS3)cc1,inconclusive
18,CCOC(=O)N1CCN(C(=O)CCc2ccc(S(=O)(=O)NCCc3ccccc3)cc2)CC1,inactive: -5%
19,COc1cc(NC(=O)c2cccc3c2C(=O)N(Cc2cccnc2)C3)cc(OC)c1OC,inactive: -1%
20,Cc1cc(C(=O)Nc2ccccc2C(F)(F)F)no1,inconclusive

row,SMILES,activation
1,CCN1CCN(CCCNC(=O)C(NC(=O)C2CCC(C)CC2)C(C)C)CC1 (stereo not given),inconclusive
2,O=c1[nH]c2ccccc2n1CCCN1CCN(C(c2ccccc2)c2ccccc2)CC1,inactive: -20%
3,Cc1cc2c(cc1C)/C(=C\C(N)=O)NC(C)(C)C2,inconclusive
4,CC(O)c1c(OCc2ccccc2)ncnc1OCc1ccccc1 (stereo not given),inactive: -3%
5,CC(=O)c1cccc(NC(=O)Nc2cc3sccc3n2C)c1,inconclusive
6,Cc1oc(-c2ccccc2F)nc1CS(=O)CC(=O)NCc1ccc2c(c1)OCO2 (stereo not given),inconclusive
7,CCOC(=O)N1CCN(c2c(NCc3ccccc3OC)c(=O)c2=O)CC1,inconclusive
8,COc1cccc(N2C(=O)C3CCCN3C2c2ccc(N(C)C)cc2)c1 (stereo not given),inconclusive
9,COc1cccc(NC(=O)C2CCCN(S(=O)(=O)c3cccc4nsnc34)C2)c1 (stereo not given),inconclusive
10,Cc1sc2ncnc(Oc3ccc(-n4ccnc4)cc3)c2c1C,inactive: -2.5%
11,CCOc1ccc(C2c3c(oc4ccccc4c3=O)C(=O)N2c2ccc(C)cn2)cc1OC (stereo not given),inactive: -1%
12,O=C(NCC(c1cccnc1)N1CCN(c2ccc(F)cc2)CC1)c1ccc(F)cc1 (stereo not given),inactive: -2%
13,CCOC(=O)Cn1c(=O)oc2cc(S(=O)(=O)N(C)Cc3ccco3)ccc21,inconclusive
14,CCOc1ccc(-n2cc(C(=O)N3CCN(C)CC3)c3cc(OC)c(OC)cc3c2=O)cc1,inconclusive
15,OCCN(CCO)c1nc(N2CCCCC2)c2nc(N(CCO)CCO)nc(N3CCCCC3)c2n1,inconclusive
16,O=C(C1CC1)N1CCc2cc(Br)cc(S(=O)(=O)NCc3ccccn3)c21,inconclusive
17,CCC1CCCCN1CCCNC(=O)CC1Oc2ccccc2NC1=O (stereo not given),inconclusive
18,Cc1ccc(CCNC(=O)C2CCC(=O)N2C2CCCC2)cc1 (stereo not given),inactive: -6%
19,COc1cccc(CNC(=O)C2CCCN(S(C)(=O)=O)C2)c1 (stereo not given),inactive: -1%
20,COc1ccc(NC(=O)c2cc3cc(OC)ccc3oc2=N)cc1,inconclusive
